From patent US20090162363A1 (published 2009) come the findings set out here.

Results are given in words; binding and its absence hold for the method and conditions named. For some assays here: Binding seen in cells or lysates may run through a third protein. Some entries that bind do so weakly or less than the wild type. Sequences can lack the tags named with a protein.

Assay [1] addresses T1, Lumio-R1N protein (human R1 with N-terminal Lumio tag, expressed in COS-7 cells from pLumio-R1N) (human) (UniProt Q96AD5).
T1 sequence (looked up): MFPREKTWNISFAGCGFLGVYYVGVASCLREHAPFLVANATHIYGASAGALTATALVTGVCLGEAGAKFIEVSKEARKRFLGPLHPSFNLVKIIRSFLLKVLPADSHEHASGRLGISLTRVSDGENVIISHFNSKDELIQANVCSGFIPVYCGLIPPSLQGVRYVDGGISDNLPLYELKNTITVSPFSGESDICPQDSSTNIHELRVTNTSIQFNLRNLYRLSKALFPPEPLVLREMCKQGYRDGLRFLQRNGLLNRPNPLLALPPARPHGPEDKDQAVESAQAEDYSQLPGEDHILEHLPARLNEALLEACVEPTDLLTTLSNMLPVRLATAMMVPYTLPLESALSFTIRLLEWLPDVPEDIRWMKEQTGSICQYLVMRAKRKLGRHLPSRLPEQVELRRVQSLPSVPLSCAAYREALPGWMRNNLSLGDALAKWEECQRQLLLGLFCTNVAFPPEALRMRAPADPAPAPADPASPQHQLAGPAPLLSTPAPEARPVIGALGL
The assay is described as follows: complex formation assay (Centricon-100 ultrafiltration) with cytosolic fraction of COS-7 cells expressing R1.

Assay [2] addresses T2, recombinant human PEDF protein (pigment epithelium derived factor) (human) (UniProt P36955).
T2 sequence (looked up): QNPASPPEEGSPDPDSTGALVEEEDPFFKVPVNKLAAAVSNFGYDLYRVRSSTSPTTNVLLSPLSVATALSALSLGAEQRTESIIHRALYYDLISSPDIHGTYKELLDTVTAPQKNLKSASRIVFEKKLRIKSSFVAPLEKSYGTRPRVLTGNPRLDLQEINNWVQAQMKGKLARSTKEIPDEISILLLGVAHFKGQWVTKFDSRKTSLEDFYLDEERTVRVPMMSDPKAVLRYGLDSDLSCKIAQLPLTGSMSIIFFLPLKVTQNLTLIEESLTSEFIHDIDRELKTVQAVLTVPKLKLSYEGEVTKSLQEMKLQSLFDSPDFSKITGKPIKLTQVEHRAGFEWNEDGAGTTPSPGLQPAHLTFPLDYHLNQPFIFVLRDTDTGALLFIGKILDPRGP
The assay is described as follows: His-tag pull-down, solid-phase binding, ultrafiltration and SPR.

B1: recombinant human PEDF protein (pigment epithelium derived factor) (ligand, UniProt P36955 20-418, looked up)
chain: QNPASPPEEGSPDPDSTGALVEEEDPFFKVPVNKLAAAVSNFGYDLYRVRSSTSPTTNVLLSPLSVATALSALSLGAEQRTESIIHRALYYDLISSPDIHGTYKELLDTVTAPQKNLKSASRIVFEKKLRIKSSFVAPLEKSYGTRPRVLTGNPRLDLQEINNWVQAQMKGKLARSTKEIPDEISILLLGVAHFKGQWVTKFDSRKTSLEDFYLDEERTVRVPMMSDPKAVLRYGLDSDLSCKIAQLPLTGSMSIIFFLPLKVTQNLTLIEESLTSEFIHDIDRELKTVQAVLTVPKLKLSYEGEVTKSLQEMKLQSLFDSPDFSKITGKPIKLTQVEHRAGFEWNEDGAGTTPSPGLQPAHLTFPLDYHLNQPFIFVLRDTDTGALLFIGKILDPRGP
Turning to B1, in assay [1], the binding entry was “binds”.

B2: R1N (recombinant human PEDF-R1 polypeptide with N-terminal 6xHis tag, from pEXP1-R1N) (receptor)
chain: MFPREKTWNISFAGCGFLGVYYVGVASCLREHAPFLVANATHIYGASAGALTATALVTGVCLGEAGAKFIEVSKEARKRFLGPLHPSFNLVKIIRSFLLKVLPADSHEHASGRLGISLTRVSDGENVIISHFNSKDELIQANVCSGFIPVYCGLIPPSLQGVRYVDGGISDNLPLYELKNTITVSPFSGESDICPQDSSTNIHELRVTNTSIQFNLRNLYRLSKALFPPEPLVLREMCKQGYRDGLRFLQRNGLLNRPNPLLALPPARPHGPEDKDQAVESAQAEDYSQLPGEDHILEHLPARLNEALLEACVEPTDLLTTLSNMLPVRLATAMMVPYTLPLESALSFTIRLLEWLPDVPEDIRWMKEQTGSICQYLVMRAKRKLGRHLPSRLPEQVELRRVQSLPSVPLSCAAYREALPGWMRNNLSLGDALAKWEECQRQLLLGLFCTNVAFPPEALRMRAPADPAPAPADPASPQHQLAGPAPLLSTPAPEARPVIGALGL
With B2, the binding entry in assay [2] is “binds”.
